Source: patent US20190101529

The chains behind the UniProt entries cited, without tags or fusion partners. Where a name states a change or a piece, a line headed by the entry shows the natural chain unless it says otherwise. Residues count along the entry.
UniProt P04271, 2-92: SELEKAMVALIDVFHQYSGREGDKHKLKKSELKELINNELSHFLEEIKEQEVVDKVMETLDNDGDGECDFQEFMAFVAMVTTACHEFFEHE
UniProt P10636: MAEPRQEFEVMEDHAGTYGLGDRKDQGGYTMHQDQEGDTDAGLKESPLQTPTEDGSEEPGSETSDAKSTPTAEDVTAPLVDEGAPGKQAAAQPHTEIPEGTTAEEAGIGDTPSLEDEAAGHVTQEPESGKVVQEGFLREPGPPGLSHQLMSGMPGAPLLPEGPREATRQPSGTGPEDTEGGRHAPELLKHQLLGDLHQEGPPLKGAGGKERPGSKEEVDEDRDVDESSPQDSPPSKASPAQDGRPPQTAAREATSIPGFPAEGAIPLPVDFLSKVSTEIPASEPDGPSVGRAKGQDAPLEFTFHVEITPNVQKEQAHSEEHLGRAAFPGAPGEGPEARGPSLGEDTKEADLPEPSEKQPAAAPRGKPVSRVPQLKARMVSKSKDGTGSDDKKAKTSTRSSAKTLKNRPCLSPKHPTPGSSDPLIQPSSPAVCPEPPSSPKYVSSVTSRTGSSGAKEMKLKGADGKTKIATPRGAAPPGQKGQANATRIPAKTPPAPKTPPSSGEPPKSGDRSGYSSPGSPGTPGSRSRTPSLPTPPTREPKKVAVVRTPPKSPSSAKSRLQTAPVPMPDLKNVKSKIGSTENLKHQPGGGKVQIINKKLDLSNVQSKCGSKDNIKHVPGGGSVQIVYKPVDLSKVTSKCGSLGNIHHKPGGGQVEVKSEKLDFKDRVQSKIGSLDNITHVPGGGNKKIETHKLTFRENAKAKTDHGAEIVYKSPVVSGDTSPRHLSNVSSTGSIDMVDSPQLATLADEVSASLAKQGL

Tests used:
Tau S202P phosphopeptide = assay: flow cytometry; conditions: binds S202 but not S202P; synthetic protein; label: 5'-FAM (flow); single-stranded DNA
S100B = S100B (UniProt P04271); assay: EMSA; conditions: 200 nM aptamer, 0.05 mg/mL protein, 4 C; label: 5'-FAM (flow); single-stranded DNA
IgG = assay: EMSA; conditions: 200 nM aptamer, 0.05 mg/mL protein, 4 C; label: 5'-FAM (flow); single-stranded DNA
Tau T231P phosphopeptide = Tau T231P phosphopeptide (UniProt P10636); assay: flow cytometry; conditions: specific to T231; 4 C, 250 nM; synthetic protein; label: 5'-FAM (flow); single-stranded DNA
[1] = test system: Tau441 (microtubule-associated protein tau, 2N4R); assay: inhibition of the protein; conditions: 5-20 uM IT3 reduces heparin-induced oligomerization of 10 uM Tau441; random sequence inactive; purified recombinant protein; label: 5'-FAM (flow); single-stranded DNA
[2] = test system: Tau (endogenous, SH-SY5Y cells) (Homo sapiens); assay: activity in cells; conditions: 20 uM, reduces okadaic acid-induced tau oligomers in SH-SY5Y, protein in cells, single-stranded DNA

| Sequence | binding result (S100B) | binding result (IgG) | binding result (Tau T231P phosphopeptide) | further results |
| --- | --- | --- | --- | --- |
| CAGCACCGTCAACTGAATAAGGACTGCTTAGGATTGCGATGATTCAGGGTGATGCGATGGAGATGT [IT2] |  |  |  | binding result (Tau S202P phosphopeptide): no binding |
| CAGCACCGTCAACTGAATGGCGGGGGGTCAGGTCGGGGTAAGGTGAGCGTGATGCGATGGAGATGT [IT5] | no binding | no binding | no binding |  |
| CAGCACCGTCAACTGAATGGGGAGAGTGGTGGGGCGGGGGCCGGATCCGTGATGCGATGGAGATGT [IT3] | no binding | no binding |  | functional effect of the aptamer [1]: active |
| CAGCACCGTCAACTGAATGGGTTGGCCGGGCAGCGGGGGGTAGGCTTGGTGATGCGATGGAGATGT [IT4] | no binding | no binding | no binding |  |
| CAGCACCGTCAACTGAATGTTGTCGTCAGAGGTTATAACCTGAACTCGGTGATGCGATGGAGATGT [IT6] |  |  | no binding |  |
| CAGCACCGTCAACTGAATTGCGGGGGGTCAGGTCGGGGTAAGGTGAGCGTGATGCGATGGAGATGT [IT9] | no binding | no binding | no binding |  |
| CAGCACCGTCAACTGAATTGCTTGGTCCTCCCGGGGTTCTGGAAAAGCGTGATGCGATGGAGATGT [IT1] |  |  | no binding |  |
| CTGAATAAGGACTGCTTAGGATTGCGATGATTCAG [IT2a] |  |  |  | functional effect of the aptamer ([2]; variant of IT2): active |
| GCTTGGTCCTCCCGGGGTTCTGGAAAAGC [IT1c] |  |  |  | functional effect of the aptamer ([2]; variant of IT1): active |

For some assays here: A negative result means that nothing was seen under these conditions. For some assays here: The exact form of at least one protein or probe is not confirmed.
